Numbering of substitutions follows the chain as printed. Numbers in names are those of the source. These are yes or no findings as the source states them, for the method shown. Binding seen in cells or lysates may run through a third protein. Some binding calls cover weakened binding; strength is not graded here. Tags and fused reporters may be left off the sequences shown.

One experiment addresses T1, GFP-TAK1 (UniProt O43318).
T1 sequence: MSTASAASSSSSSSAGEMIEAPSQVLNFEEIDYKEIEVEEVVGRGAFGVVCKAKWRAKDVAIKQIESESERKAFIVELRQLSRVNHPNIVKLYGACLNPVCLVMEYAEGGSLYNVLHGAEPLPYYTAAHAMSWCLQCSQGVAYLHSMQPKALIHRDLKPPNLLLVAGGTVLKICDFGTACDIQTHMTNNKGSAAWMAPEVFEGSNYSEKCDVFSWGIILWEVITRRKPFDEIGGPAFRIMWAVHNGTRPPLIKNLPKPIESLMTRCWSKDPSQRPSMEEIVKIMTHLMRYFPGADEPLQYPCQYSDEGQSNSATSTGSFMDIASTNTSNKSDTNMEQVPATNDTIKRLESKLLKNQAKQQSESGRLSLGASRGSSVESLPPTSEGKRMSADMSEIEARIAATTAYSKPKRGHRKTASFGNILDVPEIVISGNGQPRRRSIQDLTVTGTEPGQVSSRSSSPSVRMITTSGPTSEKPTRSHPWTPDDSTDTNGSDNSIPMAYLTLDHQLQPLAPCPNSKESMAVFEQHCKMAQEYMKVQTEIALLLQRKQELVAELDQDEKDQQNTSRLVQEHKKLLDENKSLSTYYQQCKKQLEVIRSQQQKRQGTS
In words: co-IP; lysates of HEK293IL-1R cells co-transfected with GFP-TAK1 and TAB1 vectors; GFP (clones 7.1 and 13.1) antibodies on protein G Sepharose, 2–6 h, 4°C; beads washed twice with cell lysis buffer plus 0.5 M NaCl; immunoblot of immunoprecipitates (Fig. S3A). On the technique in general: In western blotting, separated proteins are transferred to a membrane and probed.

Experiment [1] deals with T2, MYC-TAB1 (TAK1-binding protein 1, wild type) (human) (UniProt Q15750).
T2 sequence: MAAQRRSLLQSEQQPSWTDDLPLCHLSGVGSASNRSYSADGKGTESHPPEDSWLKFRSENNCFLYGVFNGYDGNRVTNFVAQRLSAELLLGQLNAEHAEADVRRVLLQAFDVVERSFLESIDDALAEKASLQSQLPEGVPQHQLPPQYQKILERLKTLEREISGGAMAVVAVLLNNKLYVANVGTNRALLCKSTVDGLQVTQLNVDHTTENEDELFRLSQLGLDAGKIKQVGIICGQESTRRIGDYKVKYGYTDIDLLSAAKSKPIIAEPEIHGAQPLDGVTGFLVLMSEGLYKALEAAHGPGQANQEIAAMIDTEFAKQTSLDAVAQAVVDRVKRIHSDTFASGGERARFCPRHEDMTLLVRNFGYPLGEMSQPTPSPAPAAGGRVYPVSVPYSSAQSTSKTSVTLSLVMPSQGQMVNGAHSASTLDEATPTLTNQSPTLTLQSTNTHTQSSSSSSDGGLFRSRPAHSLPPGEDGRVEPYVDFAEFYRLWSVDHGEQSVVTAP
In words: co-IP; lysates of HEK293IL-1R cells co-transfected with HA-TAK1 or HA-TAK1 K63W plus MYC-TAB1; MYC (9E10) antibodies on protein G Sepharose, 2–6 h, 4°C; beads washed twice with cell lysis buffer plus 0.5 M NaCl; immunoblot of immunoprecipitates (Fig. 2C).

B1: TAB1ΔS (TAB1 lacking aa 452–457; co-transfected with GFP-TAK1, Fig. S3A) (protein, UniProt Q15750)
chain: MAAQRRSLLQSEQQPSWTDDLPLCHLSGVGSASNRSYSADGKGTESHPPEDSWLKFRSENNCFLYGVFNGYDGNRVTNFVAQRLSAELLLGQLNAEHAEADVRRVLLQAFDVVERSFLESIDDALAEKASLQSQLPEGVPQHQLPPQYQKILERLKTLEREISGGAMAVVAVLLNNKLYVANVGTNRALLCKSTVDGLQVTQLNVDHTTENEDELFRLSQLGLDAGKIKQVGIICGQESTRRIGDYKVKYGYTDIDLLSAAKSKPIIAEPEIHGAQPLDGVTGFLVLMSEGLYKALEAAHGPGQANQEIAAMIDTEFAKQTSLDAVAQAVVDRVKRIHSDTFASGGERARFCPRHEDMTLLVRNFGYPLGEMSQPTPSPAPAAGGRVYPVSVPYSSAQSTSKTSVTLSLVMPSQGQMVNGAHSASTLDEATPTLTNQSPTLTLQSTNTHTQDGGLFRSRPAHSLPPGEDGRVEPYVDFAEFYRLWSVDHGEQSVVTAP
As for B1, the binding result in the experiment with GFP-TAK1 was “binds”.

B2: HA-TAK1 (TGFβ-activated protein kinase 1, wild type) (enzyme, UniProt O43318 1-606)
chain: T1 sequence
For B2, the binding result in experiment [1] is recorded as “binds”.

B3: HA-TAK1 K63W (inactive TAK1) (enzyme, UniProt O43318 1-606)
chain: T1 sequence with K63W
B3: in experiment [1], the binding entry is listed as “binds”.

B4: TAB1 wild type (co-transfected with GFP-TAK1, Fig. S3A) (protein, UniProt Q15750 1-504)
chain: T2 sequence
Take B4: in the experiment with GFP-TAK1, the binding result is “binds”.

The values above are taken from article PMC3245275.
